The list shows a part of the results.
Experiments:
Assay in all cases: log2 fold change, soluble protein after heating vs DMSO (PISA); higher = thermal stabilisation; K562 lysate, 10 uM; active = over 0.2 and 3.5 SD of the protein, either way, in both replicates (recomputed)
[1] = compound: C1=CC=C(C=C1)[C@H](COC2=CC3=C(C=C2)NC(=O)N3)NC(=O)C4=CC=CN(C4=O)CC5=CC(=C(C=C5)F)F
Outline: (§1)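 Pellets of K562 cells were dounce-homogenised in PBS pH 7.4 with 1 mM MgCl2, and the crude extract was held at 1 mg/mL protein for a 30 min treatment with 10 μM compound. Aliquots were heated for 3 min over 48°C-58°C and pooled before NP-40 was added to 0.5% at 4°C. The supernatant from 21,000xg for 90 min was quantified by TMTpro 16plex LC-MS/MS with channel sums equalised. Values are reported from duplicates as log-two fold change in thermal stability relative to solvent controls.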

Protein sequences, listed by entry. Tags and fused reporters are not part of them. Lines headed by an entry give the natural chain unless they say otherwise; changes in a name come on top.
UniProt P45877: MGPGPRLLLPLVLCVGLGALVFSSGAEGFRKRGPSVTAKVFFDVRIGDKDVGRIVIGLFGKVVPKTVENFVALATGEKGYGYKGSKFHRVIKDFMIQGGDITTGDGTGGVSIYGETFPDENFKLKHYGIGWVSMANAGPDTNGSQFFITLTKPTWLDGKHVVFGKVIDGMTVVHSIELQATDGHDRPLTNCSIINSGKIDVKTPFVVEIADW
UniProt Q9NVS9: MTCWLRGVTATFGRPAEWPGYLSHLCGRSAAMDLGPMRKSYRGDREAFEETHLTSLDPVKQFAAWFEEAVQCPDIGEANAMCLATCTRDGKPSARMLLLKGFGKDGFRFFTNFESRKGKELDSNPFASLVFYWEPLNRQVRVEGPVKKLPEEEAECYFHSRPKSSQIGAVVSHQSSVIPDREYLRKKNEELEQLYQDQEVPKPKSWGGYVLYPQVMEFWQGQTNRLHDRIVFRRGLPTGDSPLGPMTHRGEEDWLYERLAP
UniProt Q15181: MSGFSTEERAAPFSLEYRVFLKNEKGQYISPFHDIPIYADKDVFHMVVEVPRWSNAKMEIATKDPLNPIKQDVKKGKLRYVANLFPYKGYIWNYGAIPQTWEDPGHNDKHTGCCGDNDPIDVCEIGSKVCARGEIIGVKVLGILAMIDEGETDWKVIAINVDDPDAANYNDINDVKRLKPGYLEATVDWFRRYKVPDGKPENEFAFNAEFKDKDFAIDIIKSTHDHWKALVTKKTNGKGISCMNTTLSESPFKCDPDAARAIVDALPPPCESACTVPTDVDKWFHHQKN
UniProt Q8N490: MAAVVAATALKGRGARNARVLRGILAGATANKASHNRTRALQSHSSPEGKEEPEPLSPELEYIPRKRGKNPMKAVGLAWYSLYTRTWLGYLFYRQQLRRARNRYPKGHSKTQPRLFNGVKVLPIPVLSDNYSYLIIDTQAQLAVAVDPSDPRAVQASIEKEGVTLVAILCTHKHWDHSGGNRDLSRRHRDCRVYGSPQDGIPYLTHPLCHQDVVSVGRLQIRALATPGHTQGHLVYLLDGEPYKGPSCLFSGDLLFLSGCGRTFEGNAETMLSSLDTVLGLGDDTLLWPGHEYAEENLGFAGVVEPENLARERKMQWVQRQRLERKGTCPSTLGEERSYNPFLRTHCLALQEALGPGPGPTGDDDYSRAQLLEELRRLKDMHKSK

[2] = compound: CC1=C(SC2=C1C(=N[C@H](C3=NN=C(N32)C)CC(=O)N)C4=CC=C(C=C4)Cl)C
Outline: as §1

[3] = compound: CC1=C2C(=CC=C1)N=C(N(C2=O)C3=CC=CC=C3C)CN4C=NC5=C(N=CN=C54)N
Outline: as §1

[4] = compound: Cc1sc2c(c1C)C(c1ccc(Cl)cc1)=N[C@@H](CC(=O)OC(C)(C)C)c1nnc(C)n1-2
Outline: as §1

[5] = compound: c1ccc([C@@H]2C[C@H]2NC2CCNCC2)cc1
Outline: as §1

Measured: log2 fold change

PPIC (UniProt P45877)
inactive: [1] 0.209 | [2] -0.242 | [3] 0.12 | [4] 0.005 | [5] 0.055

POLR2L (UniProt P62875)
inactive: [1] -0.087 | [2] -0.225 | [3] 0.082 | [4] 0.057 | [5] 0.236

PNPO (UniProt Q9NVS9)
inactive: [1] 0 | [2] -0.05 | [3] -0.094 | [4] 0.056 | [5] 0.071

PPA1 (UniProt Q15181)
inactive: [1] 0.007 | [2] 0.017 | [3] 0.002 | [4] -0.02 | [5] 0.036

POLR2A, A0A590UJN4
inactive: [1] -0.004 | [2] 0.022 | [3] 0.007 | [4] 0.008 | [5] 0.005

POLR2E (UniProt P19388)
inactive: [1] 0.015 | [2] -0.03 | [3] 0.035 | [4] -0.049 | [5] -0.004

PNKD (UniProt Q8N490)
inactive: [1] -0.032 | [2] -0.032 | [3] -0.137 | [4] 0.032 | [5] -0.009

POFUT1 (UniProt Q9H488)
inactive: [1] 0.056 | [2] 0.056 | [3] -0.013 | [4] 0.043 | [5] 0.016

POLR2D (UniProt O15514)
inactive: [1] 0.027 | [2] -0.09 | [3] 0.074 | [4] -0.081 | [5] -0.02
